According to the supplement of paper PMC12823440, “Inhibitors supercharge kinase turnover through native proteolytic circuits” (Nature, 2025):
The other results are listed elsewhere or left out. Hit calls seldom repeat between salt and free forms of one compound.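 In K562 cells expressing nanoluciferase-fused kinases, luminescence was recorded at 4 h intervals between 2 and 18 h, normalized as percent of control with DMSO at 100% and a positive control at 0%. A significant (2 sigma) signal drop marks a time point as decreased. The authors' rule for a hit is not shown and takes in more than the number of time points.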

The compounds below were run against FGR (UniProt P09769) (assay: kinase-Nluc reporter destabilization hit call (1 = scored as downregulated) (binary); higher = compound decreases kinase abundance). Conditions: K562; 2-18 h.

kinase-Nluc reporter destabilization hit call, inactive:
CC(C)Cn1ncc2cc(Oc3ccc(F)cc3F)c(C(=O)NCCN(C)C)cc21 [p38α inhibitor 1] (10 µM) 0
CNc1cc2c(Nc3cccc(Br)c3)ncnc2cn1 (10 µM) 0
CN1C(=O)[C@@H](NC(=O)c2cc(Cc3ccccc3)on2)COc2ccccc21 (10 µM) 0
CC(C1CC1)n1cnc2c(NCc3cccc(C(F)(F)F)c3)nc(NCCN(C)C)nc21 (stereo not drawn) (10 µM) 0
Cc1n[nH]c2ncc(C(=O)N3CCC[C@H]3c3ccc(Cl)cc3)cc12 (10 µM) 0
COc1ccc(Br)c(C=O)c1O [6-Bromo-2-hydroxy-3-methoxybenzaldehyde] (10 µM) 0
Oc1ccc(-c2cnc3ccc(NCc4ccco4)nn23)cc1 [IRAK inhibitor 2] (2.5 µM) 0
C[C@H](Nc1cc2c(-c3ccc4c(c3)OCO4)noc2cn1)c1ccccc1 (10 µM) 0
Nc1ccc(C(=O)Nc2cccc(-c3nc(N4CCOCC4)c4oc5ncccc5c4n3)c2)cn1 (10 µM) 0
CCOC(=O)c1c(N2CCc3ccc(OC)cc3C2)oc(C=C2C=Nc3ncccc32)c1O (10 µM) 0
Cc1ncc(-c2cc(F)c(O)c(F)c2)cc1-c1cc(F)c(O)c(F)c1 (10 µM) 0
N=C(NC(=N)N1CCCC1)Nc1ccc(OC(F)(F)F)cc1 (10 µM) 0
CC1(C)CN(C(=O)c2ccc(-c3cccc4nc(NC(=O)C5CC5)nn34)cc2)C1 [Solcitinib] (10 µM) 0
COc1c(O)cc(O)c2c(=O)cc(-c3ccccc3)oc12 [Wogonin] (10 µM) 0
O=C(NC[C@H](O)CO)c1ccncc1Nc1ccc(I)cc1F [Pimasertib] (10 µM) 0
N#Cc1cnc(Nc2cc(NC[C@H]3CNCCO3)c(C(F)(F)F)cn2)cn1 (10 µM) 0
CCNC(=O)Nc1ccc(-c2nc3c(c(N4CCOC[C@@H]4C)n2)CCN(C2COC2)C3)cc1 (2.5 µM) 0
COc1cc2ncnc(Nc3cc(Br)c(O)c(Br)c3)c2cc1OC (2.5 µM) 0
Nc1ccc(-c2nc3ccc(-c4nc5ccc(N)cc5[nH]4)cc3[nH]2)cc1 (10 µM) 0
CCCCC(=O)OCC(=O)[C@]1(O)Cc2c(O)c3c(c(O)c2[C@@H](O[C@H]2C[C@H](NC(=O)C(F)(F)F)[C@H](O)[C@H](C)O2)C1)C(=O)c1c(OC)cccc1C3=O [Valrubicin] (10 µM) 0
CCOC(=O)c1c(Nc2ccccc2Cl)oc(/C=C2\C=Nc3ncccc32)c1O (10 µM) 0
Nc1[nH]nc2nnc(-c3c(-c4ccccc4)nn4ccccc34)cc12 (10 µM) 0
COc1cc2nc(NC3CC3)nc(NC3CCN(C(C)C)CC3)c2cc1OC (10 µM) 0
S=C(NCc1ccc2c(c1)OCO2)N1CCN(c2ncnc3c2oc2ccccc23)CC1 [Amuvatinib] (2.5 µM) 0
CC(=O)O[C@@H]1[C@@H](OC(C)=O)[C@@H](O)[C@H](Oc2c(-c3ccc(O)cc3)oc3cc(O)cc(O)c3c2=O)O[C@H]1C (10 µM) 0
CC1=CC(=O)C(C(C)C)=C/C1=N/OC(=O)c1ccccc1C [Poloxin] (2.5 µM) 0
CO[C@@H]1[C@H](N(C)C(=O)c2ccccc2)C[C@H]2O[C@]1(C)n1c3ccccc3c3c4c(c5c6ccccc6n2c5c31)C(=O)NC4 [Midostaurin] (2.5 µM) 0
Fc1ccc(Cl)cc1-c1nc(Nc2ccncc2)c2nccnc2n1 (10 µM) 0
CN1CCC(Nc2ccc(C(=O)Nc3cc(-c4ccc5c(c4)OCO5)[nH]n3)cc2)CC1 (10 µM) 0
CN1CCC(Nc2nc(Nc3ccc(Oc4ccccc4)cc3)c3c(=O)[nH]cc(Br)c3n2)CC1 (2.5 µM) 0
O=C(COc1ccc(Cl)cc1)NC1CCC(NC(=O)COc2ccc(Cl)cc2)CC1 (stereo not drawn) [ISRIB (trans-isomer)] (10 µM) 0
Cc1ccc(C2CC(=O)NC(SCC(=O)Nc3nccs3)=C2C#N)cc1 (stereo not drawn) [Necrostatin-34] (10 µM) 0
CCCCNc1ncc(C(=O)NCc2ccc(-n3ccnc3)cc2)c(NC2CCC(O)CC2)n1 (stereo not drawn) (10 µM) 0

Two records drawn at random from the list so far:
kinase-Nluc reporter destabilization hit call, inactive:
COc1ccc(Br)c(C=O)c1O [6-Bromo-2-hydroxy-3-methoxybenzaldehyde] (10 µM) 0
CC(C1CC1)n1cnc2c(NCc3cccc(C(F)(F)F)c3)nc(NCCN(C)C)nc21 (stereo not drawn) (10 µM) 0
